Source: doi:10.1101/2022.07.08.499223
For at least one entry, the source does not settle the construct or the ends of the probe.

Test system: MBP-OsNLP4 (Oryza sativa (rice))
Experiment: EMSA
Details: competition with 5x, 10x, 50x unlabeled probe

TCATGTCTCATCCTCACTAAGGTTGTTTTTTTTGGGACAAATGGA (double strand) [OsMADS27 promoter cis1 probe (NRE)]
binding result: binds
